Test results published in the supplement of paper PMC12823440, “Inhibitors supercharge kinase turnover through native proteolytic circuits” (Nature, 2025).
Where a name gives a salt, the structure may show the parent alone. The list shows a part of the results. The calls rarely recur for the same compound in another form.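 Kinases were expressed as nanoluciferase fusions in K562 cells and luminescence was read every 4 h between 2 and 18 h as percent of control, DMSO set to 100% and a positive control to 0%. A time point counts as decreased when the signal drops significantly (2 sigma). The hit call is the authors' own, does not follow from the count of time points alone, and its rule is not shown.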

Sequences of proteins named here, by UniProt entry; tags and fusion partners are left off.
UniProt P29317, whole entry: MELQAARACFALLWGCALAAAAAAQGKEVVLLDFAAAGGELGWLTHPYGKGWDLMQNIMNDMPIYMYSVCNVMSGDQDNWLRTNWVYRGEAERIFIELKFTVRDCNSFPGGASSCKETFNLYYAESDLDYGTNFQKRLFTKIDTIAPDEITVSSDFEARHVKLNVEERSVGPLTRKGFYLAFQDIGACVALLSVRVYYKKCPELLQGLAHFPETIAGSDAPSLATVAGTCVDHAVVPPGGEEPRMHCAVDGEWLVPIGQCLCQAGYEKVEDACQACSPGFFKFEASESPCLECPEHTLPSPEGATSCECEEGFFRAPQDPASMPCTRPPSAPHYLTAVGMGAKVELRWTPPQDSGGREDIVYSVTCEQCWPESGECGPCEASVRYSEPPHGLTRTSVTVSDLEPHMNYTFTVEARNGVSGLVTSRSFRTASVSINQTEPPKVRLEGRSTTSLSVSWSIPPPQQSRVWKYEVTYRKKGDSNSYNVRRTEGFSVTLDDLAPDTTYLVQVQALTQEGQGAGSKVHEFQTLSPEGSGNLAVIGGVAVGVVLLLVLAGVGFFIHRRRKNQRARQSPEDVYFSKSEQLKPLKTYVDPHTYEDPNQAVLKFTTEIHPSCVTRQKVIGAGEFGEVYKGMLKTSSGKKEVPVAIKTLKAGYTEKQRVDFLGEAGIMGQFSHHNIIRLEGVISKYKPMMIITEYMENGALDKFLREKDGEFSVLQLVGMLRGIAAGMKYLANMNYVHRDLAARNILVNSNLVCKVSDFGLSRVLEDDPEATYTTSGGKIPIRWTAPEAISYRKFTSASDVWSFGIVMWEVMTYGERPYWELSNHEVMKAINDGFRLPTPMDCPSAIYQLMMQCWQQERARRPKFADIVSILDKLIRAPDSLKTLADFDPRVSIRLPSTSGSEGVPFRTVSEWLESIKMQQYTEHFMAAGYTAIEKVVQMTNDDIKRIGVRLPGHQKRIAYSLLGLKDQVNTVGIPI
UniProt P21860, whole entry: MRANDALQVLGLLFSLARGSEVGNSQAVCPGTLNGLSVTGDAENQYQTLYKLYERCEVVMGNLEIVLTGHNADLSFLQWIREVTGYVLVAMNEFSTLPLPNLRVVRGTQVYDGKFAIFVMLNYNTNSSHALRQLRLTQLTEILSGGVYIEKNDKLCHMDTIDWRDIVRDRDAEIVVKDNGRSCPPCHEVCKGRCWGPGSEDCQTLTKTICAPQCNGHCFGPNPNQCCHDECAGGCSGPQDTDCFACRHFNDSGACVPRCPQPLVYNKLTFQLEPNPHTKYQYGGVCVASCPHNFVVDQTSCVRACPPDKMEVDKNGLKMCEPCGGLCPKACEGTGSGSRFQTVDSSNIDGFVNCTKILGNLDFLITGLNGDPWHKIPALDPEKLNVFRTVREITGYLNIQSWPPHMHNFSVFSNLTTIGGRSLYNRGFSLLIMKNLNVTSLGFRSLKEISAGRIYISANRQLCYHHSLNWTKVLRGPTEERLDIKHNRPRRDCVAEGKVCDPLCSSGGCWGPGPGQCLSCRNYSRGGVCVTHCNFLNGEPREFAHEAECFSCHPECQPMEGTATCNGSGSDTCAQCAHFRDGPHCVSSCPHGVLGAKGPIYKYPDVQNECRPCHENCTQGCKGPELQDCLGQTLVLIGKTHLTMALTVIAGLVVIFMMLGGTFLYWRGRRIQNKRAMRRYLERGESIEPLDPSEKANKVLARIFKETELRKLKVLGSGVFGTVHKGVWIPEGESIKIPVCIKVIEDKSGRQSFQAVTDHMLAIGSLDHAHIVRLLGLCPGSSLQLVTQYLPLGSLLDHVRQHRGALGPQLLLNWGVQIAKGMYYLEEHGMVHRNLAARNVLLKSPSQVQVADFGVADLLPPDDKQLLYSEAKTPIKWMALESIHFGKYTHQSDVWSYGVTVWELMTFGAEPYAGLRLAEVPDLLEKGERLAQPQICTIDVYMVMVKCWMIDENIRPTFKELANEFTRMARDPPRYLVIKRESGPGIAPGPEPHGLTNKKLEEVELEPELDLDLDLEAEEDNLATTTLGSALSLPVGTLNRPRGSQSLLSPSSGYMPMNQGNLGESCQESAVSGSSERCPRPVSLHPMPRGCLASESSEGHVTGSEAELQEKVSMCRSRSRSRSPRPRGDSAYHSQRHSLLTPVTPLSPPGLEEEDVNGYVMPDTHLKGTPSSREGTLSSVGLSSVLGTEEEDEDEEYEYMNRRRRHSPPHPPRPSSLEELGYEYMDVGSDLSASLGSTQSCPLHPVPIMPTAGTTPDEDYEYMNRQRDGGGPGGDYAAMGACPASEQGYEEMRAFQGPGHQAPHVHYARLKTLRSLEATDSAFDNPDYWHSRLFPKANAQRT
UniProt Q15303, whole entry R711C: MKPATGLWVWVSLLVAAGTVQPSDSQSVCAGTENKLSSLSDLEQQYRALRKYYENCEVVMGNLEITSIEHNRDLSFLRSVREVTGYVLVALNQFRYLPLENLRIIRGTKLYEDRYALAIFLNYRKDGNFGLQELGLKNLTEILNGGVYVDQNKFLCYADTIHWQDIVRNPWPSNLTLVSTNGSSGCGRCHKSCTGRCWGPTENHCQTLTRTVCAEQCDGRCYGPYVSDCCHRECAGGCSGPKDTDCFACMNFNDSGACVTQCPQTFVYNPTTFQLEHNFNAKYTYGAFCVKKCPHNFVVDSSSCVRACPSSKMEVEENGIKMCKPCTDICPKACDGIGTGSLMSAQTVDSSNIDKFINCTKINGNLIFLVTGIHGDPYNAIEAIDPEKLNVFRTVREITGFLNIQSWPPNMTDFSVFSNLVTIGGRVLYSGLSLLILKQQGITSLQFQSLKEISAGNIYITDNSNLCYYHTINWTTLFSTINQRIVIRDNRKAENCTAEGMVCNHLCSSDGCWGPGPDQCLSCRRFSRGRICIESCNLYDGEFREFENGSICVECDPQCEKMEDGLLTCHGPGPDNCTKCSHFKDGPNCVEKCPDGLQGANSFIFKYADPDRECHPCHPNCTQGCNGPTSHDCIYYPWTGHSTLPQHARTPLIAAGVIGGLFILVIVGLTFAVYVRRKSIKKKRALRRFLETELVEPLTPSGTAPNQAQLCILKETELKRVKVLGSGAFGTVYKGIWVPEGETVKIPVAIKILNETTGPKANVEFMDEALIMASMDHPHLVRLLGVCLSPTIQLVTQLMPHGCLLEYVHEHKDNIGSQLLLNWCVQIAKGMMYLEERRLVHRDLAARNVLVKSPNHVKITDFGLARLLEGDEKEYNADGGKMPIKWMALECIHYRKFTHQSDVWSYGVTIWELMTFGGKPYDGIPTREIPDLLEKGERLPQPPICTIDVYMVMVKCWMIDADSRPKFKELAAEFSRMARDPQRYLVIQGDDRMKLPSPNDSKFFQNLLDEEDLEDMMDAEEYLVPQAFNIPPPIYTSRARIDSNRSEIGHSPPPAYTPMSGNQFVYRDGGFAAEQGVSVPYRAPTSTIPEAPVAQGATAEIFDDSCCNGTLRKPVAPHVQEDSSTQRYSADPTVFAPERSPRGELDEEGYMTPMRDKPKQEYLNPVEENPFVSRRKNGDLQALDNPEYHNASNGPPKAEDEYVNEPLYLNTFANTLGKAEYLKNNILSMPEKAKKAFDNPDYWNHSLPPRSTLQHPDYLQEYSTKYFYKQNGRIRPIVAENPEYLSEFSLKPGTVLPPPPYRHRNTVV

What was measured:
Experiment in all cases: kinase-Nluc reporter destabilization hit call (1 = scored as downregulated) (binary); higher = compound decreases kinase abundance
Settings in all cases: K562; 2-18 h
EGFR = EGFR (UniProt P00533)
EGFR_G719S = EGFR_G719S (UniProt P00533)
EGFR_G719S_T790M = EGFR_G719S_T790M (UniProt P00533)
EGFR_L718V = EGFR_L718V (UniProt P00533)
EGFR_L858R = EGFR_L858R (UniProt P00533)
EGFR_L861Q = EGFR_L861Q (UniProt P00533)
EGFR_T790M = EGFR_T790M (UniProt P00533)
EPHA2 = EPHA2 (UniProt P29317)
ERBB3 = ERBB3 (UniProt P21860)
[1] = target: ERBB4_R711C (clone: ERBB4_mut) (UniProt Q15303)

Measured: kinase-Nluc reporter destabilization hit call

CCn1nc(C2CCN(C(=O)CCO)CC2)nc1-c1cnc(N)c(-c2nnc(C(C)(C)C)o2)n1 (10 µM)
inactive: EGFR 0 | EGFR_G719S 0 | EGFR_G719S_T790M 0 | EGFR_L718V 0 | EGFR_L858R 0 | EGFR_L861Q 0 | EGFR_T790M 0 | EPHA2 = 0 | ERBB3 = 0 | [1] 0

O=C(Nc1ccc(Cl)c(Cl)c1)Nc1ccc2nnsc2c1 (10 µM)
inactive: EGFR 0 | EGFR_G719S 0 | EGFR_G719S_T790M 0 | EGFR_L718V 0 | EGFR_L858R 0 | EGFR_L861Q 0 | EGFR_T790M 0 | EPHA2 = 0 | ERBB3 = 0 | [1] 0

CC[C@@H]1[C@H](F)C(=O)N[C@@H]1COc1nccc2cc(C(N)=O)c(OC)cc12 (10 µM)
inactive: EGFR 0 | EGFR_G719S 0 | EGFR_G719S_T790M 0 | EGFR_L718V 0 | EGFR_L858R 0 | EGFR_L861Q 0 | EGFR_T790M 0 | EPHA2 = 0 | ERBB3 = 0 | [1] 0

C=CS(=O)(=O)c1ccc(Nc2nc(OCC3CCCCC3)c3[nH]cnc3n2)cc1 (2.5 µM)
inactive: EGFR 0 | EGFR_G719S 0 | EGFR_G719S_T790M 0 | EGFR_L718V 0 | EGFR_L858R 0 | EGFR_L861Q 0 | EGFR_T790M 0 | EPHA2 = 0 | ERBB3 = 0 | [1] 0

N#C/C(=C(/N)Sc1ccc(N)cc1)c1ccccc1C(F)(F)F (10 µM)
inactive: EGFR 0 | EGFR_G719S 0 | EGFR_G719S_T790M 0 | EGFR_L718V 0 | EGFR_L858R 0 | EGFR_L861Q 0 | EGFR_T790M 0 | EPHA2 = 0 | ERBB3 = 0 | [1] 0

CCN1C(=O)CNc2ncc(-c3ccc(-c4nc[nH]n4)nc3C)nc21 [CC-115 (hydrochloride)] (2.5 µM)
inactive: EGFR 0 | EGFR_G719S 0 | EGFR_G719S_T790M 0 | EGFR_L718V 0 | EGFR_L858R 0 | EGFR_L861Q 0 | EGFR_T790M 0 | EPHA2 = 0 | ERBB3 = 0 | [1] 0

O=C(CCCCCn1cc(Nc2ncc(Cl)c(Nc3ccc(Cl)cc3)n2)cn1)NO (2.5 µM)
inactive: EGFR 0 | EGFR_G719S 0 | EGFR_G719S_T790M 0 | EGFR_L718V 0 | EGFR_L858R 0 | EGFR_L861Q 0 | EGFR_T790M 0 | EPHA2 = 0 | ERBB3 = 0 | [1] 0

COc1cc2ncnc(Nc3ccc(NC(=O)c4ccccc4)cc3)c2cc1OC [Aurora kinase inhibitor-2] (2.5 µM)
inactive: EGFR 0 | EGFR_G719S 0 | EGFR_G719S_T790M 0 | EGFR_L718V 0 | EGFR_L858R 0 | EGFR_L861Q 0 | EGFR_T790M 0 | EPHA2 = 0 | ERBB3 = 0 | [1] 0

O=C(CO)N1CCC(c2n[nH]c(-c3ccc(Cl)cc3)c2-c2ccncn2)CC1 (10 µM)
inactive: EGFR 0 | EGFR_G719S 0 | EGFR_G719S_T790M 0 | EGFR_L718V 0 | EGFR_L858R 0 | EGFR_L861Q 0 | EGFR_T790M 0 | EPHA2 = 0 | ERBB3 = 0 | [1] 0

Cc1ccc(-c2nn(C(C)(C)CNC(=O)c3ccncc3)c3ncnc(N)c23)cc1 (2.5 µM)
inactive: EGFR 0 | EGFR_G719S 0 | EGFR_G719S_T790M 0 | EGFR_L718V 0 | EGFR_L858R 0 | EGFR_L861Q 0 | EGFR_T790M 0 | EPHA2 = 0 | ERBB3 = 0 | [1] 0

c1ccc(-c2nn3c(c2-c2ccnc4cc(OCCN5CCOCC5)ccc24)CCC3)nc1 (10 µM)
inactive: EGFR 0 | EGFR_G719S 0 | EGFR_G719S_T790M 0 | EGFR_L718V 0 | EGFR_L858R 0 | EGFR_L861Q 0 | EGFR_T790M 0 | EPHA2 = 0 | ERBB3 = 0 | [1] 0

For reference, 2 of the compounds above:
O=C(CCCCCn1cc(Nc2ncc(Cl)c(Nc3ccc(Cl)cc3)n2)cn1)NO (2.5 µM)
inactive: EGFR 0 | EGFR_G719S 0 | EGFR_G719S_T790M 0 | EGFR_L718V 0 | EGFR_L858R 0 | EGFR_L861Q 0 | EGFR_T790M 0 | EPHA2 = 0 | ERBB3 = 0 | [1] 0

COc1cc2ncnc(Nc3ccc(NC(=O)c4ccccc4)cc3)c2cc1OC [Aurora kinase inhibitor-2] (2.5 µM)
inactive: EGFR 0 | EGFR_G719S 0 | EGFR_G719S_T790M 0 | EGFR_L718V 0 | EGFR_L858R 0 | EGFR_L861Q 0 | EGFR_T790M 0 | EPHA2 = 0 | ERBB3 = 0 | [1] 0

(list continues)

CCCCNC(=N)NC(=N)N [Buformin (hydrochloride)] (2.5 µM)
inactive: EGFR 0 | EGFR_G719S 0 | EGFR_G719S_T790M 0 | EGFR_L718V 0 | EGFR_L858R 0 | EGFR_L861Q 0 | EGFR_T790M 0 | EPHA2 = 0 | ERBB3 = 0 | [1] 0

COC(=O)[C@@]1(C)CC[C@]2(C(=O)O)CC[C@]3(C)C(=CC[C@@H]4[C@@]5(C)C[C@H](O)[C@H](O[C@@H]6OC[C@@H](O[C@@H]7O[C@H](CO)[C@@H](O)[C@H](O)[C@H]7O)[C@H](O)[C@H]6O)[C@@](C)(CO)[C@@H]5CC[C@]43C)[C@@H]2C1 [Esculentoside A] (10 µM)
inactive: EGFR 0 | EGFR_G719S 0 | EGFR_G719S_T790M 0 | EGFR_L718V 0 | EGFR_L858R 0 | EGFR_L861Q 0 | EGFR_T790M 0 | EPHA2 = 0 | ERBB3 = 0 | [1] 0

COc1ccc2c(=O)c(-c3ccccc3)coc2c1 [7-Methoxyisoflavone] (10 µM)
inactive: EGFR 0 | EGFR_G719S 0 | EGFR_G719S_T790M 0 | EGFR_L718V 0 | EGFR_L858R 0 | EGFR_L861Q 0 | EGFR_T790M 0 | EPHA2 = 0 | ERBB3 = 0 | [1] 0

C[C@H]1Cc2ccccc2N1C(=O)Cc1nc(N2CCOCC2)cc(=O)[nH]1 (2.5 µM)
inactive: EGFR 0 | EGFR_G719S 0 | EGFR_G719S_T790M 0 | EGFR_L718V 0 | EGFR_L858R 0 | EGFR_L861Q 0 | EGFR_T790M 0 | EPHA2 = 0 | ERBB3 = 0 | [1] 0

C=C(F)C(=O)N1CCN(c2nc(OC[C@@H]3CCCN3C)nc3c2CCN(c2cccc4cccc(Cl)c24)C3)C[C@@H]1CC#N (2.5 µM)
inactive: EGFR 0 | EGFR_G719S 0 | EGFR_G719S_T790M 0 | EGFR_L718V 0 | EGFR_L858R 0 | EGFR_L861Q 0 | EGFR_T790M 0 | EPHA2 = 0 | ERBB3 = 0 | [1] 0

CC1=C(C(=O)Nc2ccc3[nH]ncc3c2)C(c2ccc(F)cc2)NC(=O)N1 (stereo not given) (10 µM)
inactive: EGFR 0 | EGFR_G719S 0 | EGFR_G719S_T790M 0 | EGFR_L718V 0 | EGFR_L858R 0 | EGFR_L861Q 0 | EGFR_T790M 0 | EPHA2 = 0 | ERBB3 = 0 | [1] 0
